1 substance from US20020086983A1 can be followed below.

Chains of the proteins cited; added tags and fusions are not shown. Lines headed by an entry give the natural chain unless they say otherwise; changes in a name come on top. A line that says so, or that is headed by a name, gives the form on record, which may keep a tag or linker.
Flag-Mch5b C345A (Q14790, form named): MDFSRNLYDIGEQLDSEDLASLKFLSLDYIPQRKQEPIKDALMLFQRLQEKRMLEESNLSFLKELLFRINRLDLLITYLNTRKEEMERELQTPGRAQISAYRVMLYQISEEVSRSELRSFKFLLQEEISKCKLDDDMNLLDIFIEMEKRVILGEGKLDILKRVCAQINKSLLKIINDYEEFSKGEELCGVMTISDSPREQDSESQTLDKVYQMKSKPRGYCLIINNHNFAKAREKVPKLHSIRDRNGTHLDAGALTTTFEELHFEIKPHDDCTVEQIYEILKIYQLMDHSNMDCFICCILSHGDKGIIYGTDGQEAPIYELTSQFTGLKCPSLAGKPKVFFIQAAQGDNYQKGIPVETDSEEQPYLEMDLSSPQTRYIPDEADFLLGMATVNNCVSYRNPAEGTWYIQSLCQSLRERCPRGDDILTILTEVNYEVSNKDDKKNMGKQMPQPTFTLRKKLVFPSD
UniProt O75618: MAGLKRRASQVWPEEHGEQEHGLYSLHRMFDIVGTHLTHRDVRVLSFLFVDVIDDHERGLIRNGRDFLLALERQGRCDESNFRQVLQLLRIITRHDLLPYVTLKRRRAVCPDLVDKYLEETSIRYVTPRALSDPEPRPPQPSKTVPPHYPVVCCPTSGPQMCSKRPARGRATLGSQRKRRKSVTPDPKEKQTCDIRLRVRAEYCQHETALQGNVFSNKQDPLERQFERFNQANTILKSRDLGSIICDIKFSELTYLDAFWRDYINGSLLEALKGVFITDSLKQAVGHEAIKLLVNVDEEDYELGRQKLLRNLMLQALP

The target in assay [1] is T1, Flag-Mch4 C358A (UniProt Q92851).
T1 sequence (looked up): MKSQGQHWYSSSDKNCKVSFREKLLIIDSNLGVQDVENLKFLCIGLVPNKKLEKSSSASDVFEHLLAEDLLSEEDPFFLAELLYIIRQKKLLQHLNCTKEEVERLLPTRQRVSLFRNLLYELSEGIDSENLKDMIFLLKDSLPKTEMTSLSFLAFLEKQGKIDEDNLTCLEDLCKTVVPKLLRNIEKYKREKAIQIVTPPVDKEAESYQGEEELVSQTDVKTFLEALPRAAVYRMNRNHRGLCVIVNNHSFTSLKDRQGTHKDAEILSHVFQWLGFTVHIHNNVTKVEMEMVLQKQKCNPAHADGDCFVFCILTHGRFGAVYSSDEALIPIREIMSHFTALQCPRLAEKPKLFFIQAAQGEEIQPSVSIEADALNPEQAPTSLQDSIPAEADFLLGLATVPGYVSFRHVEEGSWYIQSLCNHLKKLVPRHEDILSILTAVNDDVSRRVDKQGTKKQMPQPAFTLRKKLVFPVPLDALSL
In words: co-immunoprecipitation from transfected 293 cells: anti-Flag IP, Western blot with HRP-T7 antibody.

Assay [2] deals with Flag-Mch5b C345A (UniProt Q14790). The description is as above.

No constants are given. Whether binding was seen depends on the method and setting. Binding seen in cells or lysates may run through a third protein. Some binding calls cover weakened binding; strength is not graded here. For some assays here: Tags and fused reporters may be left off the sequences shown.

In the case of T7-FLAME-2 (from UniProt O75618 1-318), the binding entry in assay [1] and in assay [2] was “binds” throughout.
